# The other results are listed elsewhere or left out.
# Test system: SARS-CoV-2 5_SL7 RNA
# Assay: NMR binding call after quantification (hit when 2 of 3 NMR criteria are met) (binary (1 = binding, 0 = not binding)); higher = binding
# Details: RNA concentration 10 µM; fragment concentration 200 µM; 293 K
row,Compound,NMR binding call
1,Cl.NC(=O)c1ccc2c(c1)CCN2,0
2,CCNC(=O)c1ccc(NS(C)(=O)=O)cc1,0
3,Oc1ccc(CN2CCOCC2)c2cccnc12,0
4,Cc1ccc(OCC(=O)Nc2cc(C)on2)cc1,0
5,CNC(=O)CCC1CCCCC1,0
6,CC(=O)Nc1cc(C(N)=O)cc(C(N)=O)c1,0
7,CC(=O)Nc1cccc(NC(N)=O)c1,0
8,NC(=O)C1CCN(C(=O)C2CCCCC2)CC1,0
9,CN(C)C(=O)N1CCOCC12CCOC2 (stereo not given),0
10,Cc1nn(C)c(C)c1NC(=O)CC#N,0
11,c1cnc(N2CCC3(CCOC3)C2)cn1 (stereo not given),0
12,CCC(=O)Nc1ccc(N2CCC(C)CC2)cc1,0

# Test system: SARS-CoV-2 5_SL8 RNA
# Assay: as above
# Details: RNA concentration 10 µM; fragment concentration 200 µM; 293 K
row,Compound,NMR binding call
1,CNS(=O)(=O)Cc1cc(C)on1,0
2,CN1CCN(C(=O)CO)CC1,0
3,Cc1ccc(C)c(OC(=O)c2ccncc2)c1,0
4,CCN(CC)C(=O)c1cc(C)no1,0
5,CS(=O)(=O)N1CCCC(C(=O)O)C1 (stereo not given),0
6,CN(C)C(=O)CNc1ccccc1,0
7,Cc1noc(CN2CCC(CO)CC2)n1,0
8,O=C1CN(Cc2ccccc2)CC(=O)N1,0
9,CC(=O)Nc1nnc(SC(C)C)s1,0
10,COc1cccc2c1CCCC(=O)N2,0
11,Cc1cnc(NC(=O)CCC2CCCC2)s1,0
12,CC(C(N)=O)N1CCN(S(C)(=O)=O)CC1 (stereo not given),0
13,CC1CNCCN1CCO (stereo not given),0
14,CCn1ccc(CNC)n1,0
15,O=C(NCCc1ccc(F)cc1)c1ccco1,0
16,NC(=O)c1ccnc(NC2CC=CC2)c1,0
17,CN1CCCC(OC(=O)c2ccco2)C1 (stereo not given),0
18,CNC(=O)CN1CCNCC1,0
19,Cc1nnc(NC(=O)N2CCOCC2)s1,0
20,Cc1ccc(NC(=O)c2ccco2)cc1O,0

row,Compound,NMR binding call
1,Cc1c(Cl)cccc1NC(=O)C1CCCO1 (stereo not given),0
2,N#Cc1ccc(CNCc2ccc(F)cc2)cc1,0
3,CC(=O)Nc1cc2c(cc1C)OCO2,0
4,CN(C)Cc1ccc(C(=O)O)o1.Cl,0
5,Cl.NC1CCN(S(=O)(=O)c2ccccc2)C1 (stereo not given),0
6,Cc1ccc(CN2CCS(=O)(=O)CC2)cc1,0
7,C1CN(CC2CCOCC2)CCN1,0
8,Cl.NC(=O)c1ccc2c(c1)CCN2,0
9,CCNC(=O)c1ccc(NS(C)(=O)=O)cc1,0
10,Oc1ccc(CN2CCOCC2)c2cccnc12,0
11,Cc1ccc(OCC(=O)Nc2cc(C)on2)cc1,0
12,CNC(=O)CCC1CCCCC1,0
13,CC(=O)Nc1cc(C(N)=O)cc(C(N)=O)c1,0
14,CC(=O)Nc1cccc(NC(N)=O)c1,0
15,NC(=O)C1CCN(C(=O)C2CCCCC2)CC1,0
16,CN(C)C(=O)N1CCOCC12CCOC2 (stereo not given),0
17,Cc1nn(C)c(C)c1NC(=O)CC#N,0
18,c1cnc(N2CCC3(CCOC3)C2)cn1 (stereo not given),0
19,CCC(=O)Nc1ccc(N2CCC(C)CC2)cc1,0

# Test system: SARS-CoV-2 attenuator hairpin (att HP) RNA
# Assay: as above
# Details: RNA concentration 10 µM; fragment concentration 200 µM; 293 K
row,Compound,NMR binding call
1,CNS(=O)(=O)Cc1cc(C)on1,0
2,CN1CCN(C(=O)CO)CC1,0
3,Cc1ccc(C)c(OC(=O)c2ccncc2)c1,0
4,CCN(CC)C(=O)c1cc(C)no1,0
5,CS(=O)(=O)N1CCCC(C(=O)O)C1 (stereo not given),0
6,CN(C)C(=O)CNc1ccccc1,0
7,Cc1noc(CN2CCC(CO)CC2)n1,0
8,O=C1CN(Cc2ccccc2)CC(=O)N1,0
9,CC(=O)Nc1nnc(SC(C)C)s1,0
10,COc1cccc2c1CCCC(=O)N2,0
11,Cc1cnc(NC(=O)CCC2CCCC2)s1,0
12,CC(C(N)=O)N1CCN(S(C)(=O)=O)CC1 (stereo not given),0
13,CC1CNCCN1CCO (stereo not given),0
14,CCn1ccc(CNC)n1,0
15,O=C(NCCc1ccc(F)cc1)c1ccco1,0
16,NC(=O)c1ccnc(NC2CC=CC2)c1,0
17,CN1CCCC(OC(=O)c2ccco2)C1 (stereo not given),0
18,CNC(=O)CN1CCNCC1,0
19,Cc1nnc(NC(=O)N2CCOCC2)s1,0
20,Cc1ccc(NC(=O)c2ccco2)cc1O,0

row,Compound,NMR binding call
1,Cc1c(Cl)cccc1NC(=O)C1CCCO1 (stereo not given),0
2,N#Cc1ccc(CNCc2ccc(F)cc2)cc1,0
3,CC(=O)Nc1cc2c(cc1C)OCO2,0
4,CN(C)Cc1ccc(C(=O)O)o1.Cl,0
5,Cl.NC1CCN(S(=O)(=O)c2ccccc2)C1 (stereo not given),0
6,Cc1ccc(CN2CCS(=O)(=O)CC2)cc1,0
7,C1CN(CC2CCOCC2)CCN1,0
8,Cl.NC(=O)c1ccc2c(c1)CCN2,0
9,CCNC(=O)c1ccc(NS(C)(=O)=O)cc1,0
10,Oc1ccc(CN2CCOCC2)c2cccnc12,0
11,Cc1ccc(OCC(=O)Nc2cc(C)on2)cc1,0
12,CNC(=O)CCC1CCCCC1,0
13,CC(=O)Nc1cc(C(N)=O)cc(C(N)=O)c1,0
14,CC(=O)Nc1cccc(NC(N)=O)c1,0
15,NC(=O)C1CCN(C(=O)C2CCCCC2)CC1,0
16,CN(C)C(=O)N1CCOCC12CCOC2 (stereo not given),0
17,Cc1nn(C)c(C)c1NC(=O)CC#N,0
18,c1cnc(N2CCC3(CCOC3)C2)cn1 (stereo not given),0
19,CCC(=O)Nc1ccc(N2CCC(C)CC2)cc1,0

# From the supplement of paper PMC8426693
